Source: PubChem BioAssay AID2517 (National Center for Advancing Translational Sciences (NCATS), 2010)
Out of some 350,000 compounds screened, about 1,200 (0.34%) were called active. Inconclusive means that the source gave no clear call. Such entries were picked first, then a sample of the others. Calls follow the shape of the dose curve; as a rule, active = well fitted inhibition curve with a large enough effect; inconclusive = small, poorly fitted or top-dose-only effect; inactive = no such curve, though single readings can be large or run the other way. A potency beside an inconclusive call is a rough fit, not a confirmed value.

Amino acid sequences for entries named in this document (tags omitted).
UniProt P27695, whole entry, looked up: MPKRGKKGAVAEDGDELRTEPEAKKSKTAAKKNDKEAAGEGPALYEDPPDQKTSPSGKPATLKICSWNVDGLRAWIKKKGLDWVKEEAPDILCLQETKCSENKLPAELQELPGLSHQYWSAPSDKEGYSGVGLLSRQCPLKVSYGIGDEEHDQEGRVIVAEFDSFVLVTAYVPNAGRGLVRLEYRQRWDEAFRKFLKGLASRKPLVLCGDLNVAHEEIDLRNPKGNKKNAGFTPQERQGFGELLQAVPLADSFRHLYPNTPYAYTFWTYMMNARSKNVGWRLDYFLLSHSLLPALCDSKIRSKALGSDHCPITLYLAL

target: DNA repair nuclease/redox regulator APEX1 (Homo sapiens) (UniProt P27695); assay: qHTS Assay for Inhibitors of the Human Apurinic/apyrimidinic Endonuclease 1 (APE1); settings: recombinant APE1, TAMRA/BHQ-2 abasic DNA cleavage fluorescence; activity change, negative = inhibition: at 65.8 µM (top of the series); also: nearly all actives have a fitted effect of over 55% in size;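 as to activity change, negative = inhibition: plate controls were vehicle for no effect and reference inhibitor for full effect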
In short: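 APE1 at 0.75 nM preincubated 15 min at room temperature with compound. Reaction then started with 50 nM double-stranded THF-abasic substrate labelled with TAMRA/BHQ-2, and 525/598 nm fluorescence read kinetically. Activity taken as third-minus-first read difference, normalized to DMSO and NSC13755 controls.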
Potency is read from the fitted curve at half-maximal effect.

Row | SMILES | Potency | activity change, negative = inhibition
1 | CCCCCCC(=O)Nc1nc(C)c(-c2csc(Nc3cc(OC)ccc3OC)n2)s1 | inconclusive: 35.5 µM [inhibitor, single point] | 
2 | O=C(O)C(O)Cc1c[nH]c2ccccc12 (stereo not drawn) |  | inactive: 1.57%
3 | O=C(Oc1ccc2c(c1)OCO2)c1cc2c(s1)CCC2 | inconclusive: 4.47 µM [inhibitor, full curve] | 
4 | O=C(OC1CCOC1=O)c1cc(-c2ccc(Br)cc2)nc2ccccc12 (stereo not drawn) | inconclusive: 44.7 µM [inhibitor, single point] | 
5 | CCOc1ccc(S(=O)(=O)Nc2ccc3c(c2)OCO3)c2cccnc12 | inconclusive: 25.1 µM [inhibitor, partial curve] | 
6 | CCN(CC)CCCC(C)n1c(-c2ccccc2)nc2c(N3CCOCC3)nc(C)nc21 (stereo not drawn) | inconclusive: 28.2 µM [inhibitor, partial curve, poor fit] | 
7 | CCCCn1c(N)c(N(CCOC)C(=O)COC(=O)c2cc(CCC)c(C)s2)c(=O)[nH]c1=O | inconclusive: 37.7 µM [inhibitor, single point] | 
8 | C[C@@H]1O[C@H](O[C@@H]2[C@H](C)O[C@H](O[C@@H]3[C@H](C)O[C@H](O[C@H]4CC[C@]5(C)[C@@H](CC[C@@H]6[C@H]5C[C@@H](O)[C@]5(C)[C@@H](C7=CC(=O)OC7)CC[C@]65O)C4)C[C@@H]3O)C[C@@H]2O)C[C@H](O)[C@@H]1O |  | inactive: -1.37% [at 21 µM]
9 | CCC(c1ccc(O)cc1)C(CC)c1ccc(O)cc1 (stereo not drawn) | inconclusive: 22.4 µM [inhibitor, partial curve] | 
10 | COc1ccc(NC(=O)Nc2cc(C)cc(C)c2)cn1 |  | inactive: -4.92%
11 | O=C(O)CN1C(=O)c2ccc(Oc3cccc4c3C(=O)N(CC(=O)O)C4=O)cc2C1=O |  | inactive: -0.322%
12 | CCCc1nc2ccccc2c2nc(N)nn12 | inconclusive: 44.7 µM [inhibitor, single point] | 
13 | Cc1c(NC(=O)C2C3C=CC(C3)C2C(=O)O)c(=O)n(-c2ccccc2)n1C (stereo not drawn) | inconclusive: 35.5 µM [inhibitor, single point] | 
14 | COc1cccc(Nc2c(Nc3cccc(OC)c3)c(=O)c2=O)c1 | inconclusive: 7.52 µM [inhibitor, partial curve] | 
15 | Cc1ccc(CNC(=O)c2cc3c(-c4ccc(Cl)cc4)nn(C)c3s2)o1 | inconclusive: 15.8 µM [inhibitor, single point] | 
16 | CNc1ncnc2ccc(-c3ccc4c(c3)OCO4)cc12 |  | inactive: -10.2%
17 | Cc1c(C(=O)N2CCN(C)CC2)oc2ccc(Br)cc12 |  | inactive: 9.29%
18 | CCOc1ccccc1NC(=O)Cc1cccs1 | inconclusive: 16.8 µM [inhibitor, single point] | 

Exported in CSV form: 2 of the compounds above.
Row,SMILES,Potency,"activity change, negative = inhibition"
3,O=C(Oc1ccc2c(c1)OCO2)c1cc2c(s1)CCC2,"inconclusive: 4.47 µM [inhibitor, full curve]",
11,O=C(O)CN1C(=O)c2ccc(Oc3cccc4c3C(=O)N(CC(=O)O)C4=O)cc2C1=O,,inactive: -0.322%
